From patent US4923802A, “Peptide substrates for the detection, characterization and purification of protein kinase C” (Immunex Corporation, priority 1985, dated 1990)
At least one peptide structure holds a part that was inferred or is arguable (an end, a ring closure or a residue). Ends that are not written are not given here.

Tested on: protein kinase C
Experiment: Direct assay for protein kinase C: phosphorylation of peptide substrate with (gamma 32P) ATP, phosphocellulose filter counting
Type: biochemical, rat
Settings: peptide as substrate
Description: The peptide substrate of the present invention may be employed to assay for the presence of protein kinase C, for instance, during the above-outlined process of preparing the enzyme. The assay is based on the phosphorylation of the peptide substrate by protein kinase C. In the assay, the sample to be tested is mixed together with the peptide substrate, radiolabeled ATP, Ca^2+, phospholipid and diacylglycerol. The mixture is incubated for only a brief period to insure linearity of the reaction and then spotted onto phosphocellulose filter paper. The level of radioactivity on the filter is measured, for instance by liquid scintillation spectrometry. The level of radiation is indicative of the extent to which the substrate has been phosphorylated, which in turn is indicative of the amount of protein kinase C present in the sample being assayed. As can be appreciated, by use of the peptide substrate for the present invention, the presence of protein kinase C may be conveniently and rapidly assayed.
Protein kinase C was prepared from the brains of eight rats each having a weight of from 150 to 200 grams. The rats are sacrificed by cervical dislocation. […]

Sequence: QRRQRKSRRTI [Gln-Arg-Arg-Gln-Arg-Lys-Ser-Arg-Arg-Thr-Ile]
- Vmax of the phosphorylation reaction: approximately 77 nmole PO4 /min/mg
- Km (read-out: Km of the phosphorylation reaction): ~23 µM
